Pks13 thioesterase: 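Polyketide synthase Pks13, Mycobacterium tuberculosis (UniProt I6X8D2). Enzyme assay of the thioesterase domain of polyketide synthase 13; the read-out is not stated. Compounds at 30 µM. The record gives no direction; the compounds picked for IC50 retests had high values, so higher reads as stronger inhibition. About 67,000 compounds were tested under these conditions; 0.46% (about 300) showed 50% or more at least once.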
CoaBC: 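Coenzyme A biosynthesis protein CoaBC, Mycobacterium tuberculosis (UniProt P9WNZ1). Enzyme assay of CoaBC with a phosphate dye (Biomol Green) read at 650 nm. Tested at 30 µM. Direction is inferred from only a few compounds that gave an IC50; most scored high, so higher reads as stronger inhibition. Most strong results did not repeat in a second test. About 67,000 compounds were tested under these conditions; 0.06% (about 40) showed 50% or more at least once.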
PfKRS1: 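Enzyme assay of the cytosolic lysyl-tRNA synthetase in 384-well plates, read by luminescence. Target: Lysine-tRNA ligase, Plasmodium falciparum 3D7 (UniProt Q8IDJ8). Tested at 30 µM. Direction is inferred from only a few compounds that gave an IC50; most scored high, so higher reads as stronger inhibition. Size under these conditions: about 69,000 compounds, about 49 of them at 50% or above in at least one test.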
TcHisRS: 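Enzyme assay of histidyl-tRNA synthetase; the read-out is not stated. Target: Histidine-tRNA ligase, Trypanosoma cruzi CL Brener (UniProt Q4DA54). Tested at 30 µM. Direction is inferred from retests: higher values go with stronger inhibition. Of about 69,000 compounds tested this way, about 31 (0.045%) reached 50% or more in at least one test.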

Amino acid sequences for entries named in this document (tags omitted). Residues count along the entry.
UniProt I6X8D2, whole entry: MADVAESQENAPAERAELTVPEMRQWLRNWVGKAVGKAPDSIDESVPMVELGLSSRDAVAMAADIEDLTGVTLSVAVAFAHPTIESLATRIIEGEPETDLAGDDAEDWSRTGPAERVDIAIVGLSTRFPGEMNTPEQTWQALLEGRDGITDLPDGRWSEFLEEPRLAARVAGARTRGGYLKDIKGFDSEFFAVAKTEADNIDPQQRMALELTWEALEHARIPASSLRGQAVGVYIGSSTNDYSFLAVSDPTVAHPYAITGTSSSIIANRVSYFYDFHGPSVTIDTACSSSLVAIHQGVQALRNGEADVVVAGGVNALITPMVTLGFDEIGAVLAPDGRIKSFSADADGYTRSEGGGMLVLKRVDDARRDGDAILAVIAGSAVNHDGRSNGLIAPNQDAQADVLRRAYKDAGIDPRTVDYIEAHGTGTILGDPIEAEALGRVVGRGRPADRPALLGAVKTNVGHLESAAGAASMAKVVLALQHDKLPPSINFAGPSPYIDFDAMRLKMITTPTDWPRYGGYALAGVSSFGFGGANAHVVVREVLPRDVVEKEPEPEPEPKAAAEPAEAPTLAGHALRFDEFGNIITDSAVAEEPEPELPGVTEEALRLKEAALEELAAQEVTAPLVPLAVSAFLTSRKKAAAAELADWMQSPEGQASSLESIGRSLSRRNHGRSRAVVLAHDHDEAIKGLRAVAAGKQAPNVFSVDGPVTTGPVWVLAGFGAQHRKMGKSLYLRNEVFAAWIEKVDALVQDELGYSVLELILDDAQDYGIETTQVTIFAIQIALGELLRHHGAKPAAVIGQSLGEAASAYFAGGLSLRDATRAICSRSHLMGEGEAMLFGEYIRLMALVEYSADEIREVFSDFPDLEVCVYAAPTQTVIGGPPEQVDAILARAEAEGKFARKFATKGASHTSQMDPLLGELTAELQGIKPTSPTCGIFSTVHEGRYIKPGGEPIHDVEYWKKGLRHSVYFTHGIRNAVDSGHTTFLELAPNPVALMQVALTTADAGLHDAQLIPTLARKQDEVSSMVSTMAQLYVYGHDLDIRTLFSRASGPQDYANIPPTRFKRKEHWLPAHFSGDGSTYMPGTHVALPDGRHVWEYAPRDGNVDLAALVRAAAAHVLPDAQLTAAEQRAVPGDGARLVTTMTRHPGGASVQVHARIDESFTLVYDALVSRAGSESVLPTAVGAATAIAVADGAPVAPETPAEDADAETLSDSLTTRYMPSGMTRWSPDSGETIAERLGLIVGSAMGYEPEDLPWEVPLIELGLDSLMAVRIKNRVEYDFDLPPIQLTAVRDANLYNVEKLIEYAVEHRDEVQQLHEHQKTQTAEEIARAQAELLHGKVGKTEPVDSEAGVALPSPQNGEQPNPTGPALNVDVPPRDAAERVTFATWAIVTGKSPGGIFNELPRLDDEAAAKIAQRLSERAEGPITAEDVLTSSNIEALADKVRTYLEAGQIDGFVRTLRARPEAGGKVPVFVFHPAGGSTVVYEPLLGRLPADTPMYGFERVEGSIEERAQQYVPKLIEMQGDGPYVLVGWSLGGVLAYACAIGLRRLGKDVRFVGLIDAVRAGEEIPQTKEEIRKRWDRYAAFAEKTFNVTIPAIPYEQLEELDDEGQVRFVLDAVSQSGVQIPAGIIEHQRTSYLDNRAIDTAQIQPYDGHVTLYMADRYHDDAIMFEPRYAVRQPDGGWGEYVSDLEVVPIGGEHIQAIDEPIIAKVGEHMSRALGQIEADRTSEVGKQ
UniProt P9WNZ1, whole entry: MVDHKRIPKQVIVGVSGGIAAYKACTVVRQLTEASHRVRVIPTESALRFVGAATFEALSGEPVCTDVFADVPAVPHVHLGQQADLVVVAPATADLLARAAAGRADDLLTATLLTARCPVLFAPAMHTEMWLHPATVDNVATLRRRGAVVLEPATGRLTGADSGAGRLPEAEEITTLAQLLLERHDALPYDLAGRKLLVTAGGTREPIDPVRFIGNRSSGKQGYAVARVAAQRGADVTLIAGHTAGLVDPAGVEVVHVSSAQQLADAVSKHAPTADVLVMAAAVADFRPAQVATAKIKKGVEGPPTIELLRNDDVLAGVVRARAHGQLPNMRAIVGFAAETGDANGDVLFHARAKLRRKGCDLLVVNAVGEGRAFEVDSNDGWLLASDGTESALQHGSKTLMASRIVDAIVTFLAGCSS
UniProt Q8IDJ8, 1-583: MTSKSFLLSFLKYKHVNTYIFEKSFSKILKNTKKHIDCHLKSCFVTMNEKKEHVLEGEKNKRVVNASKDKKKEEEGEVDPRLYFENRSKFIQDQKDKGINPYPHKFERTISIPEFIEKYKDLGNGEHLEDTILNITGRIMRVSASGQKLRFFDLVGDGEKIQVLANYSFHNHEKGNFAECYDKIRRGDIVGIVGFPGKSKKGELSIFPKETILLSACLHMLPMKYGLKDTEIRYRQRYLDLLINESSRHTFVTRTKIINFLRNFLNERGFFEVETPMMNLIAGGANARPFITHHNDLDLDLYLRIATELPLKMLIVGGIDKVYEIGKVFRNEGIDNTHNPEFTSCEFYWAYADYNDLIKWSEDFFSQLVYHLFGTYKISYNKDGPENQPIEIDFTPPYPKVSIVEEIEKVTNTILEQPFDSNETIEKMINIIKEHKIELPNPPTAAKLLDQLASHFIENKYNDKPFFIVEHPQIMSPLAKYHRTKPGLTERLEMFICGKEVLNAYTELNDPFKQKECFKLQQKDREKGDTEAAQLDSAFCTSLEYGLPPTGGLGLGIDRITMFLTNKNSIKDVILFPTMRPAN
UniProt Q4DA54, 1-478: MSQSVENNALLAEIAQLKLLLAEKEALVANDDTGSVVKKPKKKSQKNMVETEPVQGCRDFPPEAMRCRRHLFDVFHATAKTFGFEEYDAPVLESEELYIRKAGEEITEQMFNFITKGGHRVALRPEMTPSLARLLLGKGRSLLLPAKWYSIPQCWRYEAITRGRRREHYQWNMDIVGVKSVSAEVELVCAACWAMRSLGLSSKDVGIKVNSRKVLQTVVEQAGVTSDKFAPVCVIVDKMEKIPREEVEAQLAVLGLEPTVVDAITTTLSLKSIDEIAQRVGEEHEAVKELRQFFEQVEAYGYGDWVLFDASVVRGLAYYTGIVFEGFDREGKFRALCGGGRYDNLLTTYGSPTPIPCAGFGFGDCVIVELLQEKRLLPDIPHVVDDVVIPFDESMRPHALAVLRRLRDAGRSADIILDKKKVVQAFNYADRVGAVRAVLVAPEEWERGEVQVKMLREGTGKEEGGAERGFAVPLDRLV

The filed quantity is “Percent Effect” (%).
The controls that fix the scale are not given in the record; negative values are as filed.
This is an unselected part of the compounds tested.
A dash means the value is not listed here; it may have been measured.

structure,Pks13 thioesterase,CoaBC,PfKRS1,TcHisRS
O=C(c1ccc2sccc2c1)N1CCC(C(=O)O)(n2ccnc2)CC1,-17.87,-5.055,-1.628,6.186
CCc1nnsc1C(=O)NCCCC(CC)(CC)C1OCCO1,-6.468,3.571,8.105,3.448
O=C(O)CC(CC(=O)NCCc1ccsc1)c1cccs1 (stereo not given),-21.83,2.299,4.545,4.848
Cc1sc2nc(C(F)(F)F)nc(N3CCC(NS(C)(=O)=O)CC3)c2c1C,-1.681,-2.415,5.473,-0.6452
O=C(NCCNc1cnccn1)NCC1CCS(=O)(=O)C1 (stereo not given),-2.907,0.6483,8.165,2.02
O=C(CC1CC1)N1CCC2(CC1)CN(CCn1cccn1)C(=O)CO2,3.865,2.083,9.757,10.16
Cn1cc(CNC2CCc3c(ccc(=O)n3C)C2)cn1 (stereo not given),-11.76,4.827,3.685,0.5025
Cc1ccc(NC(=O)C2CSCN2C(=O)c2ccncc2)c(C)c1 (stereo not given),-17.71,1.316,1.399,3.812
COc1c(CNCc2ccc(N(C)C)nc2)c(C(C)C)nn1C,4.312,2.926,4.135,0.3802
Cn1cc(C(=O)NCCc2ccc(OC3CCCC3)cc2)ccc1=O,-4.298,-1.911,3.936,7.182
CN(Cc1nncn1C)c1nccc(N2CCC(O)CC2)n1,-18.26,-1.29,4.981,6.404
CCC(C)C(=O)N(CC(=O)OC)c1cccc(C)n1 (stereo not given),6.605,-8.902,3.087,1.754
Cc1ccsc1CNC(=O)CSc1nnc[nH]1,-33.91,-5.95,1.997,0.5525
CC(c1cccc(Cl)c1)N(C)Cc1nc2c(cnn2C)c(=O)[nH]1 (stereo not given),-1.196,4.359,-1.157,5.539
c1cnc(N2CCC3(CCCN(CC4CCCCC4)C3)C2)cn1 (stereo not given),66.56,9.921,10.09,6.122
COCCCn1ccc(NC2CCOCC2)n1,-26.48,7.54,6.233,0
CCN(CCNC(=O)Nc1nnc(C)s1)C(=O)OC(C)(C)C,-28.71,2.675,5.859,11.6
Cc1cc(NCc2cc3n(n2)CCCN(C(=O)N(C)C)C3)ncn1,0.9475,5.263,-2.457,3.306
CNc1oc(-c2ccc(OC)c(S(=O)(=O)N(C)C)c2)nc1C#N,-2.405,-4.373,1.397,1.042
CCOc1ncccc1NC(=O)N1CCOCC1C (stereo not given),-18.38,-8.678,5.351,9.239
COCCCN1CC2(CCCN(c3ncc(Cl)cc3F)C2)CCC1=O (stereo not given),-6.003,-1.202,0.974,11.39
CCOC1Sc2nnc(C)n2N=C1c1ccc(F)cc1 (stereo not given),-16.1,1.342,3.224,11.34
Cc1cc(NCc2cc3n(n2)CCCN(S(C)(=O)=O)C3)ncn1,13.68,7.456,0.5132,-0.8264
CN(CC(=O)Nc1ccncc1)CC1CCCN1c1cccnn1 (stereo not given),-2.617,6.746,6.461,1.724
Cn1cc2ncn(C3CCN(c4ccccc4F)CC3)c(=O)c2n1,-6.572,5.052,1.291,2.051
CC(=O)N1CCN(CCNS(=O)(=O)c2cc(F)cc(F)c2)CC1,-6.846,-0.1203,6.129,10.55
CCCNC(=O)Cn1nc(C(C)C)c2cnn(C(C)(C)C)c2c1=O,-4.765,0.6397,0.5912,1.653
CC(=O)N1CCc2c(nc(N(C)C)nc2N(C)CCCC2CCCO2)C1 (stereo not given),-19.98,-7.992,-4.96,3.191
CN(CCNC(=O)Nc1cnn(C)c1)Cc1ccc(F)cc1,3.299,5.395,-1.498,4.478
COC(=O)c1cccc(C(=O)N2CCN(c3ccccc3F)CC2)n1,2.315,2.155,-1.831,-1.087
CCN(CC)CC1CN(Cc2nccs2)Cc2nccn2C1 (stereo not given),-,6.09,-0.2724,5.473
CCOC[C@H]1CC[C@H]2[C@H](CCN2Cc2c(C)noc2C)O1,-29.26,2.258,5.998,6.468
Cc1cccc(C(C)(C)NC(=O)CS(=O)(=O)CC(C)C)c1,-26.25,0.2451,6.688,5.952
COc1ccc(CNCCc2cc(F)cc3c2OCOC3)c(OC)c1,-3.612,3.571,0.3976,5.804
CCCN1CCc2[nH]nc(C(=O)N3CCNC(=O)C3)c2C1,-38.82,-,-0.6511,0
CCN(Cc1c(C)nn(CC)c1C)S(=O)(=O)c1cnn(C)c1C,1.392,-0.2551,6.858,-3.125
CC(C)N(C)Cc1n[nH]c2c1CCN(C(=O)c1ccc[nH]1)C2,-12.31,-5.008,-1.205,-6.03
COc1cccc2c1OCC(NCCc1cnn(-c3ccccc3)c1)C2 (stereo not given),-51.02,-,1.526,3.185
Cc1ccc(S(=O)(=O)NCC2COCc3c(C)nnn3C2)cc1F (stereo not given),-0.5232,-2.521,4,4.132
CCOc1ccc(Cl)cc1CNCCCn1ccnc1,-39.13,11.98,1.738,2.732
CNC(=O)C1CN(c2ccnc(C)n2)CCN1Cc1ccccc1 (stereo not given),-8.038,-3.641,-0.5817,1.149
CN1CCN(CC2CC2)C(=O)c2cnc(N3CCCCC3)nc21,-27.43,7.953,-1.232,3.396
N#Cc1cccc(NC2CC(=O)N(CCc3ccc(F)cc3)C2)n1 (stereo not given),-16.68,4.218,-4.106,7.514
CC(C)(C)NC(=O)CCn1ncc2c(Cl)cccc21,-21.94,7.852,0.9168,4.348
CCOCCCn1c(NC(=O)c2cc(C)no2)nc2ccccc21,-,0,0.09682,5.714
O=C(NCCc1cc(N2CCOCC2)nc(NC2CC2)n1)C1CC1,2.355,-8.475,0.006984,3.39
COCCNC(=O)[C@@H]1C[C@@H]2CCN(c3ncccn3)C[C@H]2O1,-20.89,1.975,0.3241,4.673
O=C(C1CCCCC1)N1CCN(Cc2nc(-c3ccco3)no2)CC1,-9.458,4.47,0.7361,3.468
CCCN1CCC(N2CCN(c3cccc(C)n3)CC2)CC1,-6.376,0.3764,3.867,7.317
CC(C)(C)c1nccc(N2CCCCC2CNS(C)(=O)=O)n1 (stereo not given),3.997,-2.103,3.692,1.327
CCc1nc(C2CCCN2C(=O)c2c[nH]c(C)n2)no1 (stereo not given),-22.63,-2.216,0.4426,-4.151
c1coc(CN2C[C@@H]3CN(Cc4ccoc4)CCO[C@@H]3C2)c1,-4.055,4.242,2.09,7.263
Cc1ccc(C(=O)N2CCC3(CCC(=O)N(CCCO)C3)CC2)c(O)c1,-,2.296,3.106,2.232
COCc1nnc(NC(=O)CN2C(=O)c3ccccc3NC2C(C)C)s1 (stereo not given),30,-0.3645,0.6793,9.901
OC1(CN2CCCC2)CCCN(Cc2ccc(F)cc2Cl)C1 (stereo not given),-12.49,-22.32,8.632,7.054
CC(C1CC1)N(C(=O)NCCCn1nc2ccccn2c1=O)C1CC1 (stereo not given),-9.687,7.889,-1.681,-2.479

Some entries from above, unchanged:

structure,Pks13 thioesterase,CoaBC,PfKRS1,TcHisRS
CCN(Cc1c(C)nn(CC)c1C)S(=O)(=O)c1cnn(C)c1C,1.392,-0.2551,6.858,-3.125
O=C(O)CC(CC(=O)NCCc1ccsc1)c1cccs1 (stereo not given),-21.83,2.299,4.545,4.848
CCOc1ccc(Cl)cc1CNCCCn1ccnc1,-39.13,11.98,1.738,2.732
O=C(NCCc1cc(N2CCOCC2)nc(NC2CC2)n1)C1CC1,2.355,-8.475,0.006984,3.39
CCN(CC)CC1CN(Cc2nccs2)Cc2nccn2C1 (stereo not given),-,6.09,-0.2724,5.473

Measurements from “University of Dundee, Small-Polar-MMV Screening Library” (2021), ChEMBL document CHEMBL3988442.